PubChem BioAssay AID1259254, NCATS, 2017

Assay: 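Gene knock-downs that lead to re-replication, shown by excess G2 DNA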 (primary screen)
Cell system: human HCT116 colorectal cancer cells
Reagents: single siRNA against human genes
Duration: 3 days
Measurement: 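Nuclei stained with Hoechst and imaged; cell-cycle phase assigned by DNA content; G2 share scaled per plate, non-targeting siRNA 0%, GMNN siRNA 100%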
Direction: G2 robust z-score and G2 cells, % of GMNN control: higher = more G2 cells, more excess DNA replication; raw share of cells in G2: higher = larger share of cells with G2 DNA content
Hit rule: 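Active siRNAs have a G2 robust z of 5 or more median absolute deviations over the median, which in these data means about 38% or higher of GMNN control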
The whole screen tested about 59,000 reagents; shown is a part drawn at random. About 1,550 of all reagents (2.6%) count as active. 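G2 share is only a proxy for re-replication; each gene was hit by three separate siRNAs, and active genes were retested.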 Raw values are not corrected between plates. Reagents against one gene are numbered here. No sequences are given here. Not given: the amount of reagent.

| Gene | reagent | G2 robust z-score | G2 cells, % of GMNN control | raw share of cells in G2 (%) | Outcome |
| --- | --- | --- | --- | --- | --- |
| DEPTOR | 1 | -0.677 | -1.8 | 3.8 | inactive |
| DEPTOR | 2 | -0.185 | 1.67 | 5.36 | inactive |
| DEPTOR | 3 | -0.845 | -2.98 | 1.91 | inactive |
| NDUFV2 | 1 | 1.59 | 14.1 | 11.1 | inactive |
| NDUFV2 | 2 | -1.16 | -5.18 | 3.36 | inactive |
| NDUFV2 | 3 | -0.308 | 0.799 | 3.46 | inactive |
| COX18 | 1 | 3.28 | 26 | 13.1 | inactive |
| COX18 | 2 | -0.455 | -0.237 | 2.95 | inactive |
| COX18 | 3 | 0.0296 | 3.18 | 4.23 | inactive |
| ASNS | 1 | 0.135 | 3.92 | 6.05 | inactive |
| ASNS | 2 | -0.692 | -1.9 | 4.4 | inactive |
| ASNS | 3 | -0.59 | -1.18 | 3.55 | inactive |
| SEC61A1 | 1 | 2.18 | 18.3 | 14.5 | inactive |
| SEC61A1 | 2 | 4.06 | 31.5 | 14.6 | inactive |
| SEC61A1 | 3 | 2.94 | 23.7 | 11.7 | inactive |
| LGALS3BP | 1 | -1.16 | -5.22 | 3.4 | inactive |
| LGALS3BP | 2 | 0.263 | 4.81 | 7.22 | inactive |
| LGALS3BP | 3 | -0.564 | -0.998 | 2.87 | inactive |
| UBAC1 | 1 | -0.828 | -2.86 | 4.04 | inactive |
| UBAC1 | 2 | 0.663 | 7.63 | 7.13 | inactive |
| UBAC1 | 3 | -0.373 | 0.346 | 3.53 | inactive |
| USP30 | 1 | 1.11 | 10.7 | 10.1 | inactive |
| USP30 | 2 | 0.52 | 6.63 | 6.66 | inactive |
| USP30 | 3 | -0.491 | -0.487 | 4.08 | inactive |
| GAPT | 1 | -0.422 | -0.00167 | 3.58 | inactive |
| GAPT | 2 | 1.02 | 10.1 | 6.6 | inactive |
| GAPT | 3 | 0.0885 | 3.59 | 4.34 | inactive |
| ATP1B2 | 1 | 0.922 | 9.45 | 7.94 | inactive |
| ATP1B2 | 2 | -0.383 | 0.274 | 5.17 | inactive |
| ATP1B2 | 3 | 0.318 | 5.21 | 5.93 | inactive |
| NMS | 1 | -0.878 | -3.21 | 2.97 | inactive |
| NMS | 2 | -0.706 | -2 | 2.47 | inactive |
| NMS | 3 | -0.645 | -1.57 | 2.01 | inactive |
| COL6A5 | 1 | 0.865 | 9.05 | 6.86 | inactive |
| COL6A5 | 2 | 1.44 | 13.1 | 7.63 | inactive |
| COL6A5 | 3 | 4.9 | 37.5 | 15.1 | inactive |
| LINC02872 | 1 | -0.714 | -2.05 | 3.06 | inactive |
| LINC02872 | 2 | 0.188 | 4.29 | 5.22 | inactive |
| LINC02872 | 3 | -0.597 | -1.23 | 4.28 | inactive |
| AFF4 | 1 | 0.507 | 6.53 | 5.1 | inactive |
| AFF4 | 2 | -0.387 | 0.246 | 6.02 | inactive |
| AFF4 | 3 | 0.21 | 4.44 | 5.03 | inactive |
| IRAG1 | 1 | 0.234 | 4.62 | 7.42 | inactive |
| IRAG1 | 2 | 2.42 | 20 | 12.3 | inactive |
| IRAG1 | 3 | -1.21 | -5.54 | 1.39 | inactive |
| MMP13 | 1 | 1.05 | 10.4 | 9.18 | inactive |
| MMP13 | 2 | -0.838 | -2.93 | 3.87 | inactive |
| MMP13 | 3 | -0.174 | 1.74 | 4.56 | inactive |

6 entries from above, arranged by “raw share of cells in G2 (%)”, low to high.
| Gene | reagent | G2 robust z-score | G2 cells, % of GMNN control | raw share of cells in G2 (%) | Outcome |
| --- | --- | --- | --- | --- | --- |
| LINC02872 | 3 | -0.597 | -1.23 | 4.28 | inactive |
| AFF4 | 3 | 0.21 | 4.44 | 5.03 | inactive |
| AFF4 | 1 | 0.507 | 6.53 | 5.1 | inactive |
| LINC02872 | 2 | 0.188 | 4.29 | 5.22 | inactive |
| AFF4 | 2 | -0.387 | 0.246 | 6.02 | inactive |
| IRAG1 | 1 | 0.234 | 4.62 | 7.42 | inactive |
